The target of this test is Kruppel-like factor 15 (KLF15) (mouse (endogenous in mouse liver)) (UniProt Q9EPW2). The test can be described thus: co-IP; liver extracts of mice fed ad libitum or fasted for 24 h; immunoprecipitated with antibodies against BTG2 or KLF15 on protein A/G PLUS-Agarose, Western blot with the corresponding antibodies.

Amino acid sequences for entries named in this document (tags omitted).
UniProt Q9EPW2: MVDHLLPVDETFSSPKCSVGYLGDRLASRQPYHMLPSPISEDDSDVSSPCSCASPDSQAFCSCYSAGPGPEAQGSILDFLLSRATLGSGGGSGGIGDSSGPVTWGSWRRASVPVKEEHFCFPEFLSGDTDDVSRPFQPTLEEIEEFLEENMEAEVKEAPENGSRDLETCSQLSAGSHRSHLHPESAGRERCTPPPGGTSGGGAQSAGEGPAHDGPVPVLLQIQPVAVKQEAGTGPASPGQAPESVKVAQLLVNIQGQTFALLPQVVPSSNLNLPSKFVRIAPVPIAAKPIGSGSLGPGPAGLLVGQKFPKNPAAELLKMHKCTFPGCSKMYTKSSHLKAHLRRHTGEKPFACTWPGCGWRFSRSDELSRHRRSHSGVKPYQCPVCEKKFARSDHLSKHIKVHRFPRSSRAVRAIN
UniProt Q04211: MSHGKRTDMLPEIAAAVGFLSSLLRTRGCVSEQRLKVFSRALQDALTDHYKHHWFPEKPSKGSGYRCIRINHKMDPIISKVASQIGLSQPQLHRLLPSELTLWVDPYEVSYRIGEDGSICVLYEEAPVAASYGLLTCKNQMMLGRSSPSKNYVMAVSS

Results are given in words; binding and its absence hold for the method and conditions named. In cells and extracts the contact can be indirect. Some binding calls cover weakened binding; strength is not graded here.

On to “B-cell translocation gene 2 (BTG2) (from UniProt Q04211 1-158)”, for which the binding entry is listed as “binds”.

The record behind these values is paper PMC6403367.
